Results deposited as PubChem BioAssay AID686938 (Drosophila RNAi Screening Center, 2013)
Purpose: 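Fly genes required for calcium entry once internal stores are emptied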 (primary screen). Cell system: Drosophila S2R+ cells. Reagents: long dsRNA against Drosophila genes, about 0.25 µg dsRNA per well, roughly 10,000 cells. Time to read-out: 5 days of knock-down before the calcium assay. Conditions: thapsigargin (SERCA pump blocker) to empty calcium stores; entry signal taken 4 min after adding it. Detection: 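Duplicate raw fluo-4 intensities per well from a plate reader, at rest and four minutes after thapsigargin emptied calcium stores; entry-to-rest ratio filled for only some wells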. Scale: calcium entry signal: higher = stronger calcium signal after store depletion; resting calcium signal: higher = higher resting calcium signal. Rule for the call: 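Hit if the duplicate-averaged plate z-score for entry over resting signal is under −3; wells with weak total dye signal (Fmax z < −2) or more than 5 off-targets removed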. Meaning of the calls: active = strongly reduced calcium entry; inactive = no strong reduction.
The screen tested about 23,000 reagents; below is an unselected part of those with a known target gene and a result. Of all reagents, 75 (0.33%) got an active call. 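Raw plate signals without normalisation; calls rest on plate z-scores that were not deposited; ratio present for only 364 wells.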 A number with no mark means an inactive call. Reagents against one gene are numbered here. A plus sign joins genes that one reagent is predicted to hit. The record does not give: the dose of the treatment.

| Target gene | dsRNA no. | calcium entry signal, replicate 1 (fluorescence units) | calcium entry signal, replicate 2 (fluorescence units) | resting calcium signal, replicate 1 (fluorescence units) | resting calcium signal, replicate 2 (fluorescence units) |
| --- | --- | --- | --- | --- | --- |
| Prp40 (pre-mRNA processing factor 40) | 1 | 3.14e7 | – | 1.91e7 | – |
| CG33229 | 1 | 3.94e7 | 2.96e7 | 1.71e7 | 1.25e7 |
| Btk (Bruton tyrosine kinase) | 1 | 3.04e7 | 5.09e7 | 1.43e7 | 1.99e7 |
| Btk (Bruton tyrosine kinase) | 2 | 5.08e7 | – | 2.23e7 | – |
| Btk (Bruton tyrosine kinase) | 3 | 4.72e7 | 3.75e7 | 2.15e7 | 1.52e7 |
| CalpC (Calpain C) | 1 | 3.83e7 | 2.30e7 | 1.95e7 | 1.14e7 |
| stg (string) | 1 | 2.59e7 | 2.08e7 | 1.54e7 | 1.14e7 |
| Acp65Aa (Adult cuticle protein 65Aa) | 1 | 2.87e7 | 3.49e7 | 1.38e7 | 1.62e7 |
| gNacalpha | 1 | 4.06e7 | 4.44e7 | 1.90e7 | 1.90e7 |
| CG32024 | 1 | 2.48e7 | 4.57e7 | 1.22e7 | 2.16e7 |
| CG6602 | 1 | 2.59e7 | 3.06e7 | 1.14e7 | 1.36e7 |
| CG6230 | 1 | 4.14e7 | – | 1.99e7 | – |
| ZnT41F (Zinc transporter 41F) | 1 | 3.80e7 | – | 1.84e7 | – |
| CG34454 | 1 | 3.22e7 | 3.55e7 | 1.53e7 | 1.56e7 |
| CG14488 | 1 | 4.40e7 | 4.86e7 | 1.79e7 | 2.17e7 |
| CG10365 | 1 | 4.38e7 | 3.69e7 | 1.92e7 | 1.68e7 |
| CkIIalpha-i1 (CKII-alpha subunit interactor-1) | 1 | 5.18e7 | 7.21e7 | 2.35e7 | 2.95e7 |
| ced-6 | 1 | 4.50e7 | 3.13e7 | 2.27e7 | 1.61e7 |
| CG9098 | 1 | 5.73e7 | 3.56e7 | 2.36e7 | 1.51e7 |
| CG9098 | 2 | 5.09e7 | 2.70e7 | 2.56e7 | 1.31e7 |
| Cpr49Ac (Cuticular protein 49Ac) | 1 | 4.00e7 | 4.63e7 | 1.78e7 | 2.16e7 |
| CG4598 | 1 | 3.11e7 | 4.94e7 | 1.59e7 | 2.03e7 |
| CCAP (Crustacean cardioactive peptide) | 1 | 4.17e7 | 2.95e7 | 2.06e7 | 1.35e7 |
| CG15803 | 1 | 3.80e7 | 4.80e7 | 4.31e7 | 2.13e7 |
| CG11537 | 1 | 3.34e7 | 2.35e7 | 2.19e7 | 1.01e7 |
| CG5984 | 1 | 3.91e7 | 6.15e7 | 1.90e7 | 2.56e7 |
| betaGlu (beta glucuronidase) | 1 | 3.95e7 | 4.07e7 | 1.77e7 | 1.85e7 |
| arr (arrow) | 1 | 3.03e7 | 3.79e7 | 1.58e7 | 1.74e7 |
| CG31446 | 1 | 4.37e7 | 5.53e7 | 2.09e7 | 2.55e7 |
| CG14621 | 1 | 4.63e7 | 4.82e7 | 2.20e7 | 2.01e7 |
| bcd (bicoid) | 1 | 3.96e7 | 4.14e7 | 1.57e7 | 1.94e7 |
| Syt14 (Synaptotagmin 14) | 1 | 3.50e7 | 5.65e7 | 1.71e7 | 2.30e7 |
| CG12502 | 1 | 2.13e7 | 3.43e7 | 1.15e7 | 1.53e7 |
| CG12502 | 2 | 3.77e7 | 3.39e7 | 2.21e7 | 1.54e7 |
| CG8543 | 1 | 3.71e7 | 4.76e7 | 1.79e7 | 2.12e7 |
| CG8543 | 2 | 3.34e7 | 4.23e7 | 1.64e7 | 2.09e7 |
| CG42502 + CG10570 | 1 | 4.22e7 | – | 1.94e7 | – |
| eIF3g1 (eukaryotic translation initiation factor 3 subunit g1) | 1 | 1.82e7 | 2.12e7 | 1.21e7 | 1.29e7 |
| CG6254 | 1 | 4.10e7 | 5.33e7 | 1.84e7 | 2.20e7 |
| CLS (Cardiolipin synthase) | 1 | 3.31e7 | 4.35e7 | 1.72e7 | 1.97e7 |

Already shown: 6 of the entries above.
| Target gene | dsRNA no. | calcium entry signal, replicate 1 (fluorescence units) | calcium entry signal, replicate 2 (fluorescence units) | resting calcium signal, replicate 1 (fluorescence units) | resting calcium signal, replicate 2 (fluorescence units) |
| --- | --- | --- | --- | --- | --- |
| Prp40 (pre-mRNA processing factor 40) | 1 | 3.14e7 | – | 1.91e7 | – |
| CG33229 | 1 | 3.94e7 | 2.96e7 | 1.71e7 | 1.25e7 |
| Btk (Bruton tyrosine kinase) | 1 | 3.04e7 | 5.09e7 | 1.43e7 | 1.99e7 |
| Btk (Bruton tyrosine kinase) | 2 | 5.08e7 | – | 2.23e7 | – |
| Btk (Bruton tyrosine kinase) | 3 | 4.72e7 | 3.75e7 | 2.15e7 | 1.52e7 |
| CalpC (Calpain C) | 1 | 3.83e7 | 2.30e7 | 1.95e7 | 1.14e7 |
